# From article PMC6036246, “SAV4189, a MarR-Family Regulator in Streptomyces avermitilis, Activates Avermectin Biosynthesis” (Frontiers in Microbiology, 2018)
# For at least one entry, the source does not settle the construct or the ends of the probe. For some assays here: No signal at the amounts used counts as a negative. For some assays here: Where a protein sequence is shown, tags need not be part of it. For some assays here: The comparison behind a weaker result is the experiment's own reference, which may not be listed here.
# What was measured:
# [1] = system: T1, His6-SAV4189 (Streptomyces avermitilis); assay: EMSA; settings: EMSA as in Luo et al. 2014 (buffer not given), 0.15-0.3 nM DIG probe, footprinting 400 ng probe in 25 ul, 30 min at 25 C, recombinant protein, protein details: His6 (pET-28a), label: DIG 3' end
# T1 sequence (looked up, limits assumed): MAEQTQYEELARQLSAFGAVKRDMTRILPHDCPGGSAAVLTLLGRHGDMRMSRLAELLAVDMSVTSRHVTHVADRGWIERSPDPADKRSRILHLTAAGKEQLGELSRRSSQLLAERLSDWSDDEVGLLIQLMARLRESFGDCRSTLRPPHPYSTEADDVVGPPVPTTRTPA
# [2] = system: T1, His6-SAV4189 (Streptomyces avermitilis); assay: DNase I footprinting; settings: sites A and B protected; recombinant protein; protein details: His6 (pET-28a); label: 5' FAM; probe letters rebuilt from the primers and the genome
# [3] = system: T1, His6-SAV4189 (Streptomyces avermitilis); assay: competition with a labelled probe; settings: 50- and 150-fold competitor, differences slight; EMSA as in Luo et al. 2014 (buffer not given), 0.15-0.3 nM DIG probe; footprinting 400 ng probe in 25 ul, 30 min at 25 C; recombinant protein; protein details: His6 (pET-28a); label: DIG 3' end, unlabeled as competitor
# [4] = 200, 400 nM protein, probe letters rebuilt from the primers and the genome
# [5] = 62.5-250 nM protein, unlabeled as competitor
sequence,measurement,setting,value
TCTTGCGTGCGTGTCCCACGGGTCACTCCTCACTTTTGTCAGTGCAAAGTGACCCGACGGTAACCGCAGCTCCTTACCTTAAGTAACCCGTCGGTAAGTTACGTGCCAGTAACGATTGTTGGAATGGCCTGAAACCTAGGAGGCGCGGTGCGAGTTGCGGGGAGCCACGACCGGCGCCGGGGTCTGCGCGGCCCGGGTGACGTCCGCGACGAGTTCGACGACATC (double strand) [1959p],binding result,[1]; [4],binds
CTGGTCACCGACATGTCCACGGCGAGCAGCTCGGCGAGCCTGCTCATCCGCATGTCGCCGTGGCGGCCGAGCAGCGTGAGCACGGCGGCCGAGCCGCCGGGACAGTCGTGCGGCAGGATCCGCGTCATGTCCCGCTTCACGGCACCGAAGGCGCTGAGCTGACGGGCCAGTTCCTCGTACTGCGTCTGCTCGGCCATCACACCTCCCGTATTCGTTGCTTAGGGCAACCATAGGAAAGTTGGTTGCCGCAGGCAAACTAAATAGGGTCTTCAGGGATAAAAACTTGGCAAAGGCAAGTATTGGCAGGCGTAAAGCCGCAGGTGGGGAGGTCAGGAGCGGTCGATCGACGCCCTGCCCGTCCCGTGGCCGAGGGCGAGGACGTCCGGCCCGGCAGGGGCCCCACTTGGGTAGTCCCCGCGTATTCGCTAGGGTCCTGGGCCATGGCTAACACCCAGGGCCCCGAGGGCAACTACGACCCCGCCGGCAGCACCCAGATGTTCCGTGCCTTCGT (double strand) [sav_4188-sav_4189 intergenic footprint probe],binding result,[2],binds
AAGTCCTCGCCTTCTCCAGGACTCAGGCGGTGAACCGGATCCTCCCCGGCACCGCGGTGATGGTGAAGCTGGGGTCGTGCATGAGGGATTCAGTGGGACGGCACGGCAGTCACGCGTGCTCCGAACGGTCCGCCGCCTCCCGATTCCCCCCGGGTCCTGCCTGTCCACAGCCGTCGAACGACTAGGCGGACGCCGACAGGTATAGTCCACTTCTTGCCAGCGGAGCAACATCGAACGCACG (double strand) [ngcEp],binding result,[1]; [4],no binding
GCCTGGTCCTCCGAACTCCCCATAGGCCAGGCCGCCTTCGCGCCGCCGTCCCTCTGGACCCTTGCTCGCGGGTGCGGCGATGGCCTTCTCCTCCGGCTCGGGCGGTCAATCCGCCCGAGCCGTTTCCGCGGTCACCGCACCGCCATACATACCGGTCACCCGGTATTCCATTCGGTGTTGCAGCACGCGACCCACTGCGCATCCCACTCGTGAATTGTGGACCGCCATCCGGGGCACGGATGTCTCCAGGAAGGAACTCCTTCACCCTCGCGAACACCACCTCAGAATCCCACGATCATCAGTTAATCATCAAAGTCAGCGACCTTGACACTACCCCGCCCACCAGGGCAAATTCATAACACTGACCATCACCTCTGATGCTGATCAACCCAGCCCGCACGGCCGCGACCGCTTTTGCTCAAGCAATCGAAATCCCCGAGACACGCTTTCTTGGAAAAAGGAGAAATAAGAACATCATGCAGGGAGTTTCCTGTCTGCACC (double strand) [aveRp],binding result,"[1]; 125 and 250 nM protein, probe letters rebuilt from the primers and the genome",no binding
CACGTACGCCACCTGGTGGTAGTTTGCCTGCGGCAACCAAGCCATGGCCGACCAGGCCC (double strand) [Probe B1],binding result,[1]; [5],binds
same,binding result,[3],binds more weakly
GTACGCCACCTGGTGGTGCCAATACTTGCCTTTGCCAAGTTTTGCCATGGCCGACCAGG (double strand) [Probe A],binding result,[1]; [5],binds
same,binding result,[3],binds
GTACGTGCTCCATTCCAGGATCTTGCCGTACGCGGGTGTCGTGCCGGTAGCGCTTTCCCTGTACGAGGGCTTGCCCGAACGAAGAAACGGGCCCGGGCCACTCGAAACCGAGTGGCCCGGGCCCGCACGCGCGCGTGGAGCGCGAAAACGACATCGCCGCCCTGAAGGCGTACGAAAACGTCAGTCCTTCG (double strand) [add4p],binding result,[1]; [4],no binding
TGCCATACGTTGAATATGTCCGGGCGGCCGGCGTGCAGAGACCTTTCGTACGCCGGCTGTCCCCGCAAGCCAATGGCGAGCGCGCCCGGACGCCTGCGTCACAGGCACCCTCCTGCGCCACAAAGCGCTGCCACAGCACCACCTCCGCCGAACCGACGGCACCCCTCACACCAGCAGCAGCACCGACGTAACCCTCAGCGTCTCCCCTCAAGACGCCACTTCGCCGGAGGCAACACCGTGAAGGAAATCCTGGACG (double strand) [ccrA2p],binding result,[1]; [4],no binding
CACGTACGCCACCTGGTGGATGGTTGCCCTAAGCAACGAAGCCATGGCCGACCAGGCCC (double strand) [Probe B2],binding result,[1]; [5],binds
same,binding result,[3],binds
CATCACACCTCCCGTATTCGTTGCTTAGGGCAACCATAGGAAAGTTGGTTGCCGCAGGCAAACTAAATAGGGTCTTCAGGGATAAAAACTTGGCAAAGGCAAGTATTGGCAGGCGTAAAGCCGCAGGTGGGGAGGTCAGGAGCGGTCG (double strand) [4189p],binding result,"[1]; hygromycin B, dose-dependent disruption, 62.5 nM protein, probe letters rebuilt from the primers and the genome",binds more weakly
same,binding result,"[1]; thiostrepton (in DMSO), dose-dependent disruption, 62.5 nM protein, probe letters rebuilt from the primers and the genome",binds more weakly
GCATCGGATTCCTGTGTGAACGGGCGACAGCGGCCTGACCCGAGGGCGGTTGAGGGGGCGCCGACCGCAGGCCGCGCGCGTCCTCCGCCCCAACTCATCCTGCGCGTACGTGTCCTGACGGCGCGTCAGGATGGTGTCCCGATTGGATCAAGCGGAAACGCATTGTTTCCCCAGGTGTAAATTGAATCCTTAAACAGTTCCCTTTCATATAATCAAAATTCACGCTGGGCAAAAGGGTTGGATTCGGCACTTGAGTGTGAATAGCCACGATTCGTACTCGCCGGTAGATGGCTCGTTTAGGAC (double strand) [pks1-3p],binding result,[1]; [4],binds
GACGATCTCACCCGCACCGGGTGCGGGGGGTGGGCCGGAGGTGCGCCCGGGACCCGTGAGGTCCGTACGGCGGGCGGTGAGTTGGGTTGTGCGGTCCACTCAGGTCTCCCCGAAGACGTCCGGCCAGGCGGTTCGGCAGTAGCTACCGTAGGGTTACGTCTATTTAACACGCAAAACTCAATATGTAATGCAGAGTTGGTGAACGCAAGAGGGTGTGCATGAACGGAAGG (double strand) [5653p],binding result,[1]; [4],binds
TGTGGTTCGAGCTGGCGGTGCCCGGCTGAGTCGTACCGCTCGGGGCGGATGCCGAGGGGCGGCTCCGGGGGCCGGCGCGGAGGGGTGGCGCAAGGGGCGCGCCGGGAGCGCACGGAGGGCGATTGGTTCAGGCCAGTGGCGCCTGCGAGAGTCTTTGGTTCGACGGGGCGCCACCTGGTTAGAAGACTGGGAGTATGT (double strand) [prpM3p],binding result,[1]; [4],binds
